Assay results: US20230157289A1, “HERBICIDAL PHENYLURACILS” (BASF-SE, priority 2020, published 2023)
Some entries share one result that the patent states for a list of compounds.

Tests used:
Type in all cases: in vivo
Details in all cases: application rate 125 g/ha, scale from 0 to 100
Setaria faberi = assay: greenhouse pre-emergence herbicidal test, SETFA
Echinocloa crus-galli = assay: greenhouse pre-emergence herbicidal test, ECHCG
Abuthilon theophrasti = assay: greenhouse pre-emergence herbicidal test, ABUTH
Amaranthus retroflexus = assay: greenhouse pre-emergence herbicidal test, AMARE

With COC(=O)C(OC)Oc1ccccc1Oc1cc(-n2c(=O)cc(C(F)(F)F)n(C)c2=O)c(F)cc1Br (stereo not shown) [example 1, Methyl 2-[2-[2-bromo-4-fluoro-5-[3-methyl-2,6-dioxo-4-(trifluoromethyl)pyrimidin-1-yl]phenoxy]phenoxy]-2-methoxy-acetate] the herbicidal activity (Setaria faberi) was “very good herbicidal activity (a very good herbicidal activity is given at values of at least 85)”, the herbicidal activity (Echinocloa crus-galli) was “very good herbicidal activity (a very good herbicidal activity is given at values of at least 85)” and the herbicidal activity (Abuthilon theophrasti) was “very good herbicidal activity (a very good herbicidal activity is given at values of at least 85)”. For the same compound, the herbicidal activity (Amaranthus retroflexus) was “very good herbicidal activity (a very good herbicidal activity is given at values of at least 85)”.
